Article PMC8866402
Results are given in words; binding and its absence hold for the method and conditions named. Sequences can lack the tags named with a protein.

Assays:
[1] = target: T1, recombinant human Flag-tagged fortilin (human) (UniProt P13693); test: co-IP; in vitro mixture of recombinant Flag-fortilin, TGF-β1, Flag-p53 and His6-NQO2 in Buffer A (10 mM Tris pH 7.4, 100 mM NaCl, 0.01% NP-40); rabbit anti-fortilin mAb or rabbit IgG, 2 h room temperature; anti-rabbit IgG Dynabeads; four washes in Buffer B (0.3% NP-40); western blot; both purified
T1 sequence: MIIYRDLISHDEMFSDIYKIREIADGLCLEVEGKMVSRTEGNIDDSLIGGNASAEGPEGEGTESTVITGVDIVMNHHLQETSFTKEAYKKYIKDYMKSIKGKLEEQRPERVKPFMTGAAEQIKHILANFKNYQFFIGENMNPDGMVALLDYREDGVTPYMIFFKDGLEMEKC

[2] = target: T1, recombinant human Flag-tagged fortilin (human); test: co-IP; same procedure with recombinant Flag-fortilin, TGF-β2 or TGF-β3 and His6-NQO2; anti-fortilin mAb or IgG; five washes in Buffer B; western blot; both purified

B1: recombinant human His6-tagged N-Ribosyldihydronicotinamide:Quinone Reductase 2 (enzyme, UniProt P16083 1-231)
chain: MAGKKVLIVYAHQEPKSFNGSLKNVAVDELSRQGCTVTVSDLYAMNLEPRATDKDITGTLSNPEVFNYGVETHEAYKQRSLASDITDEQKKVREADLVIFQFPLYWFSVPAILKGWMDRVLCQGFAFDIPGFYDSGLLQGKLALLSVTTGGTAEMYTKTGVNGDSRYFLWPLQHGTLHFCGFKVLAPQISFAPEIASEEERKGMVAAWSQRLQTIWKEEPIPCTAHWHFGQ
With B1 the binding [1] was “no binding” and the binding [2] was “no binding”.
